Our source for the AC50 values is PubChem BioAssay AID493014 (National Center for Advancing Translational Sciences (NCATS), 2011).

The list shows a part of the results. The main result of the screen is listed elsewhere. These columns were measured beside it and carry no call. The list favours compounds with an active or inconclusive main result. Words in brackets tell the shape of the fitted curve; partial curves, single points and poor fits give uncertain potencies.

The experiment in a line: qHTS Assay to Find Inhibitors of Chronic Active B-Cell Receptor Signaling. Conditions: ABC-DLBCL IkBa-CBG/CBR reporter, luminescence ratio (green luciferase fused to IkBa over red control in TMD8 lymphoma cells), 4 h; measured here: CBR red luminescence, cell number. Put shortly: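 Cell line TMD8 (human ABC DLBCL), stably expressing tet-inducible CBG68-IkBa fusion and CBR; IMDM/0.5% FBS; cpd up to 46 uM; dox induction, 4 h, 37C/5% CO2; dual luminescence; green/red ratio; MG132 control.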
As to `O=C(CN1C(=O)C2CC=CCC2C1=O)Nc1nc2ccccc2[nH]1` (configuration not stated), the AC50 was 8.91 µM [falling, partial curve]. As to `CC(=O)Nc1ccc(S(=O)(=O)N[C@@H](C)C(=O)OCc2cc([N+](=O)[O-])cc3c2OCOC3)cc1`, the AC50 was 17.8 µM [rising, single point]. The figure for `O=C1C(Cl)=C(Nc2cccc(O)c2)C(=O)N1Cc1ccccc1` is 10 µM [falling, partial curve, poor fit]. The figure for `CCOc1cccc(C(=O)Nc2ccc3oc(-c4cccnc4)nc3c2)c1` is 3.98 µM [falling, single point]; for `COc1cccc(CN(C)C(=O)CSCC(=O)Nc2cccc(C)c2)c1OC` it is 2.31 µM [rising, single point]; for `CN(CC(=O)Nc1ccc(Cl)cc1)C(=O)CNC(=O)Cc1cccc2ccccc12` it is 0.259 µM [falling, full curve, poor fit]. Consider `O=C(NC(=S)Nc1ccc(Oc2ccccc2)cc1)c1ccc(Cl)cc1`, for which the AC50 was 8.2 µM [falling, partial curve, poor fit]. The figure for `COc1cc(-c2cc(-c3ccccc3)nc(SCC(=O)O)c2C#N)cc(OC)c1OC` is 10 µM [falling, partial curve]; for `COC(=O)c1cccc(NC(=O)CN2CCc3ccccc3C2)c1` it is 17.8 µM [falling, single point]; for `Cc1ccccc1C(=O)Nc1ccc(O)cc1C(=O)O` it is 7.08 µM [falling, partial curve]. As for `COc1cccc(/C=N/Nc2ncccc2[N+](=O)[O-])c1OC`, the concentration at half-maximal activity (AC50) is 8.91 µM [falling, partial curve, poor fit]. The figure for `Cc1cccc(/C(N)=N/OC(=O)c2ccc(Cl)cc2Cl)c1` is 1.84 µM [rising, full curve, poor fit]; for `Cc1nc2c(c(=O)c3ccccc3n2C)c(=O)n1C1CCCCCC1` it is 35.5 µM [falling, single point]; for `COc1cccc(NC(=O)Nc2ccccc2C(N)=O)c1` it is 15.8 µM [falling, partial curve].

For `Cc1ccc2c(c1)CCCN2C(=O)c1ccc2c(c1)OCO2`, the concentration at half-maximal activity (AC50) is 32.6 µM [rising, partial curve, poor fit]. The figure for `O=C(CNc1ccc2ccccc2c1)N/N=C/c1ccncc1` is 12.6 µM [falling, partial curve]; for `Cc1nc(-c2cccc(NC(=O)c3ccc(-n4cccn4)cc3)c2)cs1` it is 14.6 µM [falling, partial curve, poor fit]; for `Cc1c(Cl)cccc1NC(=S)N1CCCN(Cc2ccc(F)cc2)C1` it is 35.5 µM [falling, single point]. The figure for `CCn1c(=O)cc(SCC(=O)NCc2ccco2)c2ccccc21` is 12.6 µM [rising, single point]; for `O=C(Cc1ccc(Cl)cc1)SCc1ccccc1` it is 7.31 µM [rising, partial curve]; for `OCCN(Cc1ccccc1)Cc1ccc(Cl)cc1Cl` it is 4.47 µM [rising, full curve]. As to `O=c1[nH]c2ccccc2nc1-c1ccc(Cl)cc1`, the AC50 was 0.224 µM [rising, full curve, poor fit]. The figure for `c1csc(-c2nc3ccccn3c2NC2CCCCC2)c1` is 25.1 µM [falling, single point]; for `O=Cc1ccc(OCc2ccc3ccccc3c2)cc1` it is 1.58 µM [falling, full curve]; for `N#CCSc1ncccc1-c1nc2ccccc2[nH]1` it is 20.6 µM [falling, single point].

As for `O=c1c2ccccc2ncn1-c1ccc([N+](=O)[O-])cc1[N+](=O)[O-]`, the AC50 is 35.5 µM [falling, single point]. The figure for `Cc1csc(SCC(=O)NC23CC4CC(CC(C4)C2)C3)n1` is 3.66 µM [falling, full curve, poor fit]; for `Cc1ccc(N2C(=O)[C@@H]3[C@H](C2=O)[C@H]2C=CC=NN2[C@@H]3C(=O)Nc2ccccc2)cc1` it is 17.8 µM [falling, partial curve].

As for `C#CCOCCOCCOCCNc1nc(N2CCN(C(=O)CCCCCCCCCCNC(=O)[C@H](CO)n3cc(CCCSC)nn3)CC2)nc(N2CCN(C(=O)CCCCCCCCCCNC(=O)[C@@H]([C@H](C)O)n3cc(C)nn3)CC2)n1`, the AC50 is 3.26 µM [rising, partial curve, poor fit]. With `CCCOc1ccc(C(=O)CCN2CCN(C(=O)OCC)CC2)cc1`, the AC50 is 7.08 µM [falling, partial curve]. Consider `CNc1nnc(-c2ccc(N(C)C)cc2)s1`, for which the AC50 is 18.4 µM [falling, partial curve]. The figure for `Cc1cc(C)c(C)c(C(=O)C2OC(=O)C(C)(C)C(=O)C2(C)C)c1C` (configuration not stated) is 2.31 µM [rising, full curve]; for `COc1ccc(-c2c(C#Cc3ccsc3)c3cc(-c4ccc5[nH]ccc5c4)ccc3n2C)cc1` it is 13 µM [rising, partial curve, poor fit]; for `CCN(CC)Cc1oc(-c2ccccc2)cc1C(=O)O` it is 15.8 µM [rising, partial curve, poor fit].

Consider `Cc1ccc(S(=O)(=O)Oc2ccc(/C=N/NC(=O)c3nn(C)cc3Cl)cc2)cc1`, for which the AC50 is 2.91 µM [falling, partial curve, poor fit].

With `CCOC(=O)c1cc(-c2ccccc2)n(CCC(=O)NC2CCCCC2)c1C`, the AC50 is 8.91 µM [rising, partial curve]. Consider `O=C(Cn1c(=O)n2ncnc2c2c3c(sc21)CCCC3)c1ccccc1`, for which the AC50 is 14.6 µM [rising, partial curve]. In the case of `Cc1cc(SCC(=O)N2CCN(C(=O)c3ccco3)CC2)c(C)cc1Br`, the AC50 is 18.4 µM [falling, partial curve]. The figure for `CC(=O)c1ccc2c(c1)Nc1ccccc1S2` is 1.46 µM [rising, full curve, poor fit]; for `CC(C)C(=O)Nc1nc(-c2ccccc2)ns1` it is 20.6 µM [falling, single point]; for `COc1ccc(CCNC(=O)CSc2nc(N)c3c(C)c(C)oc3n2)cc1OC` it is 18.4 µM [rising, single point]. The figure for `CCn1c(SCC(=O)Nc2ccccc2N2CCOCC2)nnc1-c1ccccc1` is 4.61 µM [falling, single point].
